PubChem BioAssay AID1259308 – NCATS, 2017
Aim: 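Genes whose loss raises luciferase production in HEK293 cells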 (primary screen). Cell system: human HEK293 embryonic kidney cells stably expressing firefly luciferase (HEK-CMV-Luc2-Hygro). Knock-down reagent: single siRNA against human genes, 0.8 pmol siRNA per well. Time to read-out: 72 h. Detection: 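Luciferase light (ONE-Glo) measured on one replicate plate set and viability (CellTiter-Glo) on the other, scaled to a negative control siRNA, with robust z-scores and luciferase per cell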. Scale: total luciferase, z-score and total luciferase, % of control: higher = more reporter protein produced. Call rule: 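Active when the median/MAD z-score for overall luciferase is greater than 3; a gene was taken forward for validation with new siRNAs if at least two of its three siRNAs passed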. Meaning of the calls: active = raised luciferase; inactive = no rise.
This is an unselected part of about 59,000 deposited reagents. About 1,510 of them (2.6%) were called active. 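Calls use total luciferase alone and ignore viability, so some active siRNAs may act by altering cell number.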 The numbers tell different reagents against one gene apart. Not all columns of the deposit are shown. Reagent sequences are not shown.

ERICH2 #1 gave total luciferase, z-score -0.415; total luciferase, % of control 73.6; inactive.
With knock-down of ERICH2 #2, the screen gave total luciferase, z-score -0.683; total luciferase, % of control 68.3; inactive.
Knock-down of ERICH2 #3 gave: total luciferase, z-score -0.805; total luciferase, % of control 65.9; inactive.
Knock-down of ERICH2 #4 resulted in: total luciferase, z-score -0.496; total luciferase, % of control 72; inactive.
Silencing of ERICH2 #5 resulted in: total luciferase, z-score 0.695; total luciferase, % of control 95.7; inactive.
Silencing of ERICH2 #6 came out at: total luciferase, z-score 1.51; total luciferase, % of control 112; inactive.
After knock-down of SRXN1 #1, the screen gave total luciferase, z-score -0.482; total luciferase, % of control 72.3; inactive.
SRXN1 #2 showed total luciferase, z-score -2.02; total luciferase, % of control 41.8; inactive.
SRXN1 #3 scored total luciferase, z-score 1.38; total luciferase, % of control 109; inactive.
Silencing of ACOX1 #1 resulted in: total luciferase, z-score -1.38; total luciferase, % of control 54.4; inactive.
ACOX1 #2 gave total luciferase, z-score 1.23; total luciferase, % of control 106; inactive.
ACOX1 #3 scored total luciferase, z-score 0.482; total luciferase, % of control 91.5; inactive.
Depletion of TMEM259 #1 gave: total luciferase, z-score -0.576; total luciferase, % of control 70.4; inactive.
After knock-down of TMEM259 #2, the screen gave total luciferase, z-score -1.19; total luciferase, % of control 58.3; inactive.
TMEM259 #3 scored total luciferase, z-score -0.707; total luciferase, % of control 67.8; inactive.
With knock-down of TMEM35A #1, the record shows total luciferase, z-score 0.0693; total luciferase, % of control 83.3; inactive.
TMEM35A #2 showed total luciferase, z-score 1.36; total luciferase, % of control 109; inactive.
For TMEM35A #3, the values are total luciferase, z-score 0.437; total luciferase, % of control 90.6; inactive.
Against MRPL12 #1 the deposit lists total luciferase, z-score 0.524; total luciferase, % of control 92.3; inactive.
For MRPL12 #2, the entry reads total luciferase, z-score -0.225; total luciferase, % of control 77.4; inactive.
Against MRPL12 #3, the values are total luciferase, z-score -0.789; total luciferase, % of control 66.2; inactive.
SEPTIN14 #1 scored total luciferase, z-score 0.882; total luciferase, % of control 99.4; inactive.
SEPTIN14 #2 scored total luciferase, z-score 0.651; total luciferase, % of control 94.8; inactive.
Depletion of SEPTIN14 #3 gave: total luciferase, z-score 0.5; total luciferase, % of control 91.8; inactive.
After knock-down of SLC13A1 #1, the record shows total luciferase, z-score 0.0467; total luciferase, % of control 82.8; inactive.
SLC13A1 #2 scored total luciferase, z-score -0.861; total luciferase, % of control 64.8; inactive.
After knock-down of SLC13A1 #3, the screen gave total luciferase, z-score 0.0221; total luciferase, % of control 82.3; inactive.
Knock-down of USP12 #1 gave: total luciferase, z-score -0.968; total luciferase, % of control 62.6; inactive.
For USP12 #2, the values are total luciferase, z-score 2.16; total luciferase, % of control 125; inactive.
Against USP12 #3, the values are total luciferase, z-score 0.257; total luciferase, % of control 87; inactive.
Depletion of CFAP44 #1 came out at: total luciferase, z-score -0.486; total luciferase, % of control 72.2; inactive.
CFAP44 #2 gave total luciferase, z-score -0.174; total luciferase, % of control 78.4; inactive.
Depletion of CFAP44 #3 resulted in: total luciferase, z-score 1.01; total luciferase, % of control 102; inactive.
